## Primary screen of a compound library

From ChEMBL document CHEMBL3988442, “University of Dundee, Small-Polar-MMV Screening Library” (2021).

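Growth of Mycobacterium tuberculosis over 4 days (cholesterol / DPPC medium with tyloxapol); the read-out is not stated. Concentration: 50 µM. Direction is inferred from retests: higher values go with more growth inhibition. Of about 69,000 compounds tested this way, about 370 (0.54%) reached 50% or more in at least one test.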

Values are the deposited “Percent Effect”, in %. The record does not define 0% and 100%; most values in the screen are far below 50% and negative numbers occur (in some assays of this library far below -100). This is an unselected part of the compounds tested. Two or more numbers in one place are separate tests of the same structure; such repeats can differ widely.

Result for CC(C(=O)N1CCOCC1)n1cncn1 (stereo not drawn) was -10.95%.
Result for CCN(CC)Cc1cnc2n1CCN(Cc1c(C)noc1C)CC2.O=C(O)C(F)(F)F.O=C(O)C(F)(F)F was -26.07%.
Result for CNC(=O)c1cnc(/C=C/c2cc(OC)c(OC)c(OC)c2)s1 was 2.682% & 9.506%.
Result for Cc1nn(C)c(C)c1C1CCCN1Cc1nc(-c2ccco2)oc1C (stereo not drawn) was -11.9%.
Result for CN1CCC(c2cncc(N(C)C)n2)CC1 was 3.6%.
Result for CCc1noc(C)c1C(=O)N1C[C@H](NS(C)(=O)=O)[C@@H](C2CC2)C1 was 2.792%.
Result for CCC(OC)C(=O)NCc1cc2n(n1)CCCN(C1CCCCC1)C2 (stereo not drawn) was -22.1%.
Result for CCc1cnc(CN2C(=O)CC3(CCSC3)C2=O)o1 (stereo not drawn) was -4.928%.
Result for Fc1cccc(CN2CCC(c3noc(-c4ccccn4)n3)CC2)c1F was 7.43%.
Result for CCn1nc(C)c(CN(CCOC)C(=O)c2ccc(=O)[nH]n2)c1C was -0.4677% & -15.57%.
Result for CNc1cc(N2CCCC2CNCc2c[nH]nc2C(C)(C)C)ncn1 (stereo not drawn) was -7.193% & -11.22%.
Result for Cc1ccc(-c2cc(CN3CCCC(Cn4cncn4)C3)on2)cc1 (stereo not drawn) was 0.8494%.
Result for O=C(O)C(F)(F)F.[H][C@]12CCC[C@@]1(COc1ccccn1)CN(S(=O)(=O)C1CC1)C2 was 1.184%.
Result for Cc1ccc(CN2CC[C@H](c3nnc(COc4ccc(F)cc4)o3)C2)o1 was 31.77%.
Result for Cc1cc(C(=O)N2CC[C@@H](O)[C@@H]2Cc2ccccc2)no1 was -9.571%.
Result for [H][C@]12CC[C@]([H])(CN(Cc3[nH]cnc3C)C1)N(C(=O)CCn1cncn1)C2 was -5.811%.
Result for CN(CCC#N)C(=O)CN1CCCC1c1ccsc1 (stereo not drawn) was -18.91%.
Result for O=C(O)c1cc2c(nc1-c1ccncc1)CCN(Cc1ccoc1)CC2 was -10.94%.
Result for O=C(NC1CCCCC1)c1cc(Br)cnc1N1CCCCC1 was -0.3626%.
Result for Cc1nc2c(c(NCCc3nc(C)c(Cl)s3)n1)CCNCC2 was 9.935%.
Result for Cc1ccc(N2CCCC3(COCCN(c4nccs4)C3)C2)nn1.O=C(O)C(F)(F)F.O=C(O)C(F)(F)F (stereo not drawn) was -15.33%.
Result for [H][C@@]12CS(=O)(=O)C[C@]1([H])N(C(=O)c1ccc3nccnc3c1)CCN2CCO was 6.644%.
Result for COc1ccc(CC(=O)N2CCCCC2Cn2cc(C)cn2)cc1F (stereo not drawn) was 5.211%.
Result for O=S(=O)(NCc1ccnc(-n2ccnc2)c1)c1cncc(Cl)c1 was 17.16%.
Result for O=C(Cc1ccn[nH]1)Nc1cncc(Br)c1O was -34.71% & -7.174%.
Result for COc1ccc(CNC(=O)c2ccoc2CN2CCNC(=O)C2)cc1 was -5.506%.
Result for O=C(O)C(F)(F)F.[H][C@@]12CCCO[C@]1([H])[C@H](NC(=O)CC1CC1)CN(c1ncccn1)C2 was 15.73%.
Result for CCn1cc(CN(C)S(=O)(=O)c2ccc(NC(C)=O)cc2)cn1 was -15.15%.
Result for CCCn1ccnc1CN1CC[C@@H](NC(=O)c2cccnc2)[C@H](O)C1 was 3.448%.
Result for CC(C)NC(=O)c1nnn(-c2cccc(F)c2)c1C1CC1 was -2.853%.
Result for CCCNC(=O)c1cc2c(s1)CCN2C(=O)c1ccccc1 was -2.942%.
Result for CC(=O)N1CCCC2(C1)CN(c1ncc(C)cn1)CCO2.O=C(O)C(F)(F)F (stereo not drawn) was 19.48%.
Result for CC(CN1CCOCC1)NCc1nncn1C1CCCCC1 (stereo not drawn) was -11.36%.
Result for Cn1cnc2c1CCN(Cc1nc(-c3ccco3)no1)C2 was 0.2407%.
Result for CC(C)c1cccc(NC(=O)N2CC(N(C)C)C2)c1 was 14.89%.
Result for Cc1c(S(=O)(=O)NCC(C)Cn2cc(Cl)cn2)cnn1C (stereo not drawn) was 3.354%.
Result for CCC(CC)CN1CCCn2nc(CNC(=O)COC)cc2C1 was -0.7144%.

Repeated from the top, 4 entries:

| structure | effect |
|---|---|
| `CC(C(=O)N1CCOCC1)n1cncn1` (stereo not drawn) | -10.95% |
| `CCN(CC)Cc1cnc2n1CCN(Cc1c(C)noc1C)CC2.O=C(O)C(F)(F)F.O=C(O)C(F)(F)F` | -26.07% |
| `CNC(=O)c1cnc(/C=C/c2cc(OC)c(OC)c(OC)c2)s1` | 2.682% & 9.506% |
| `Cc1nn(C)c(C)c1C1CCCN1Cc1nc(-c2ccco2)oc1C` (stereo not drawn) | -11.9% |